One experiment has as its target myc-tagged mAKAPα (UniProt Q9WVC7). Put plainly: co-immunoprecipitation with anti-HA antibody, HEK293 cells.
For experiment [1], the target named is myc-tagged mAKAPβ (muscle A-kinase anchoring protein beta), full-length (Rattus norvegicus (Rat)) (UniProt Q9WVC7). Described as above.
For experiment [2], the target named is T1, myc-tagged mAKAP 1286-1833 (UniProt Q9WVC7).
T1 sequence (looked up): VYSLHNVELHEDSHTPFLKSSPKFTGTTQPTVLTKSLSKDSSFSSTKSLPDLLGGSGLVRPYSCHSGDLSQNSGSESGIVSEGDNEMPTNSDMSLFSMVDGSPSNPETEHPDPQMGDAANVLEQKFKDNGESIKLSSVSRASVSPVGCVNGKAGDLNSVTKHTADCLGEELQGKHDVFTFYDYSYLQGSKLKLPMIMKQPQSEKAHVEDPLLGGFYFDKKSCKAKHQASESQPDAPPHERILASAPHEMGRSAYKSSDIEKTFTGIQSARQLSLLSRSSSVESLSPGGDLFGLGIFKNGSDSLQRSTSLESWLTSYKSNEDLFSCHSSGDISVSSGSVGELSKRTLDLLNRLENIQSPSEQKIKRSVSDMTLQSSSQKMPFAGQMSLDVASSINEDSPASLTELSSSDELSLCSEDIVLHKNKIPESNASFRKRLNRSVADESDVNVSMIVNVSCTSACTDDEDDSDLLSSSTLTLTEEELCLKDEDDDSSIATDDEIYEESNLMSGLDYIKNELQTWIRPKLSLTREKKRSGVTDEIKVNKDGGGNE
Put plainly: co-immunoprecipitation with myc-tag antibody.

The target in experiment [3] is T2, His-tagged mAKAP 1286-1833 (bacterially expressed) (UniProt Q9WVC7).
T2 sequence (looked up): T1 sequence (looked up)
Put plainly: SPR, purified bacterially expressed proteins. A general note: Surface plasmon resonance follows binding to a sensor surface in real time, without labels.

Experiment [4] deals with T2, His-tagged mAKAP 1286-1833 (bacterially expressed). Put plainly: SPR (BIAcore T100), His-mAKAP 1286-1833 immobilised, His-RSK3 as analyte.

No constants are given. Whether binding was seen depends on the method and setting. For part of these data: Binding seen in cells or lysates may run through a third protein. Some binding calls cover weakened binding; strength is not graded here. For part of these data: Where a sequence is shown, tags or fusion partners need not be part of it.

With “HA-tagged RSK3 (p90 ribosomal S6 kinase type 3), full-length (from UniProt Q15349 1-733) (enzyme)”, the binding entry (with myc-tagged mAKAPα; in experiment [1]; in experiment [2]) was “binds” in each case.
For “His-tagged full-length RSK3, unphosphorylated (bacterially expressed) (from UniProt Q15349 1-733) (enzyme)”, the binding result in experiment [3] and in experiment [4] was “binds” each time.

B1: ERK-phosphorylated His-RSK3 (enzyme)
chain: MDLSMKKFAVRRFFSVYLRRKSRSKSSSLSRLEEEGVVKEIDISHHVKEGFEKADPSQFELLKVLGQGSYGKVFLVRKVKGSDAGQLYAMKVLKKATLKVRDRVRSKMERDILAEVNHPFIVKLHYAFQTEGKLYLILDFLRGGDLFTRLSKEVMFTEEDVKFYLAELALALDHLHSLGIIYRDLKPENILLDEEGHIKITDFGLSKEAIDHDKRAYSFCGTIEYMAPEVVNRRGHTQSADWWSFGVLMFEMLTGSLPFQGKDRKETMALILKAKLGMPQFLSGEAQSLLRALFKRNPCNRLGAGIDGVEEIKRHPFFVTIDWNTLYRKEIKPPFKPAVGRPEDTFHFDPEFTARTPTDSPGVPPSANAHHLFRGFSFVASSLIQEPSQQDLHKVPVHPIVQQLHGNNIHFTDGYEIKEDIGVGSYSVCKRCVHKATDTEYAVKIIDKSKRDPSEEIEILLRYGQHPNIITLKDVYDDGKFVYLVMELMRGGELLDRILRQRYFSEREASDVLCTITKTMDYLHSQGVVHRDLKPSNILYRDESGSPESIRVCDFGFAKQLRAGNGLLMTPCYTANFVAPEVLKRQGYDAACDIWSLGILLYTMLAGFTPFANGPDDTPEEILARIGSGKYALSGGNWDSISDAAKDVVSKMLHVDPHQRLTAMQVLKHPWVVNREYLSPNQLSRQDVHLVKGAMAATYFALNRTPQAPRLEPVLSSNLAQRRGMKRLTSTRL
modifications: phosphorylated in vitro with ERK2; sites of this preparation not given
notes: also called Phospho-His-RSK3 (ERK2); not shown: His tag
On to B1, for which the binding entry in experiment [3] is recorded as “binds”.

The values above are taken from patent publication US9132174 (ANCHORED RSK3 INHIBITORS, dated 2015).
